Our source for the IC50 values is patent US11590129B2, “Combination therapy with an antitumor alkaloid” (PHARMA MAR, S.A., priority 2010, dated 2023).

Assay [1] concerns A549 human lung carcinoma cell line. As to the kind of experiment: MTT cytotoxicity assay in A549 cells: IC50 of single agents and combinations with PM01183. The class given is cell-based. As to conditions: A549, 72 hours drug exposure. As for the experimental part:
Additional serial dilutions were prepared in serum-free culture medium to achieve a final 4× concentration. Aliquots of 50 μL of each diluted compound were added per well.
A549 was the human lung carcinoma cell line selected for this assay.
(§1) a. […] Briefly, cells were harvested and seeded in 96 well microtiter plates at a density of 5,000 cells in 150 μL of culture medium and incubated for 24 hours in drug-free medium before treatment with vehicle alone or test compounds for 72 h.
(§2) The cytotoxic effect was measured by the MTT reduction assay, in which 3-(4,5-Dimethylthiazol-2-yl)-2,5-diphenyltetrazolium bromide, a tetrazole, which is reduced to purple formazan in the mitochondria of living cells, was used. MTT (50 μL of 1 mg/mL stock solution) was added to the wells and incubated for 8 hours at 37° C. until formazan crystals were formed. After gently removing the culture medium, DMSO was added to dissolve the insoluble purple formazan product into a colored solution. […] Results were expressed as percentage of control cell growth.
(§3) b. In a second set of assays, A549 human tumor cells were incubated with PM01183 in combination with each of the agents mentioned above.
As a visual aid, response values were plotted on a scatter plot with dose ratios given on the x-axis and % response values on the y-axis. […]
(Tetrazolium dyes change colour on reduction, which living cells bring about.)

Assay [2] concerns PC-3 human prostate cancer cell line. As to the kind of experiment: cells. As to conditions: PC-3, 72 h. On the procedure:
as §1, §2, §3
(§4) As a visual aid, response values were plotted on a scatter plot with dose ratios given on the x-axis and % response values on the y-axis. […] In cases where response values at the two endpoints were approximately equivalent, points lying above or below this predicted line of additivity could be interpreted as representing antagonistic or synergistic drug interaction, respectively. […]

Assay [3] deals with U87-MG human glioblastoma cell line. As to the kind of experiment: cells. As to conditions: U-87 MG, 72 h. On the procedure:
as §1, §2, §3, §4

Assay [4] concerns MDA-MB-231 human breast adenocarcinoma cell line. As to the kind of experiment: cells. As to conditions: MDA-MB-231, 72 h. On the procedure: as §1, §2, §3, §4
The subject of assay [5] is RXF-393 human kidney carcinoma cell line. Put plainly: cells. As to conditions: RXF 393, 72 h. On the procedure: as §1, §2, §3, §4
Assay [6] deals with HT-29 human colon adenocarcinoma cell line. As to the kind of experiment: cells. As to conditions: HT-29, 72 h. On the procedure:
as §1, §2, §3, §4

Assay [7] concerns PANC-1 human pancreatic carcinoma cell line. Put plainly: cells. As to conditions: PANC-1, 72 h. On the procedure:
as §1, §2, §3, §4

For assay [8], the system named is HGC-27 human gastric carcinoma cell line. Put plainly: cells. As to conditions: HGC-27, 72 h. On the procedure:
as §1, §2, §3, §4

pIC50: −log10 of the molar value.

For the molecule `O=C(CCCCCCC(=O)Nc1ccccc1)NO` [Vorinostat, vorinostat], the pIC50 (in general, −log10 of the IC50, conventionally taken in molar units) is 5.17 in assay [1]; 5.41 in assay [2]; 4.80 in assay [3]; 5.77 in assay [4]; 5.39 in assay [5]; 5.56 in assay [6]. Besides, the results for the pIC50 in assay [7] and in assay [8] were 5.22 and 5.92, respectively.
